Reference: the supplement of paper PMC11006884
The list shows a part of the results, in another mix than the full data.

By UniProt entry, the sequences of proteins in these tests, tags left out. Where a name states a change or a piece, a line headed by the entry shows the natural chain unless it says otherwise.
UniProt Q92508: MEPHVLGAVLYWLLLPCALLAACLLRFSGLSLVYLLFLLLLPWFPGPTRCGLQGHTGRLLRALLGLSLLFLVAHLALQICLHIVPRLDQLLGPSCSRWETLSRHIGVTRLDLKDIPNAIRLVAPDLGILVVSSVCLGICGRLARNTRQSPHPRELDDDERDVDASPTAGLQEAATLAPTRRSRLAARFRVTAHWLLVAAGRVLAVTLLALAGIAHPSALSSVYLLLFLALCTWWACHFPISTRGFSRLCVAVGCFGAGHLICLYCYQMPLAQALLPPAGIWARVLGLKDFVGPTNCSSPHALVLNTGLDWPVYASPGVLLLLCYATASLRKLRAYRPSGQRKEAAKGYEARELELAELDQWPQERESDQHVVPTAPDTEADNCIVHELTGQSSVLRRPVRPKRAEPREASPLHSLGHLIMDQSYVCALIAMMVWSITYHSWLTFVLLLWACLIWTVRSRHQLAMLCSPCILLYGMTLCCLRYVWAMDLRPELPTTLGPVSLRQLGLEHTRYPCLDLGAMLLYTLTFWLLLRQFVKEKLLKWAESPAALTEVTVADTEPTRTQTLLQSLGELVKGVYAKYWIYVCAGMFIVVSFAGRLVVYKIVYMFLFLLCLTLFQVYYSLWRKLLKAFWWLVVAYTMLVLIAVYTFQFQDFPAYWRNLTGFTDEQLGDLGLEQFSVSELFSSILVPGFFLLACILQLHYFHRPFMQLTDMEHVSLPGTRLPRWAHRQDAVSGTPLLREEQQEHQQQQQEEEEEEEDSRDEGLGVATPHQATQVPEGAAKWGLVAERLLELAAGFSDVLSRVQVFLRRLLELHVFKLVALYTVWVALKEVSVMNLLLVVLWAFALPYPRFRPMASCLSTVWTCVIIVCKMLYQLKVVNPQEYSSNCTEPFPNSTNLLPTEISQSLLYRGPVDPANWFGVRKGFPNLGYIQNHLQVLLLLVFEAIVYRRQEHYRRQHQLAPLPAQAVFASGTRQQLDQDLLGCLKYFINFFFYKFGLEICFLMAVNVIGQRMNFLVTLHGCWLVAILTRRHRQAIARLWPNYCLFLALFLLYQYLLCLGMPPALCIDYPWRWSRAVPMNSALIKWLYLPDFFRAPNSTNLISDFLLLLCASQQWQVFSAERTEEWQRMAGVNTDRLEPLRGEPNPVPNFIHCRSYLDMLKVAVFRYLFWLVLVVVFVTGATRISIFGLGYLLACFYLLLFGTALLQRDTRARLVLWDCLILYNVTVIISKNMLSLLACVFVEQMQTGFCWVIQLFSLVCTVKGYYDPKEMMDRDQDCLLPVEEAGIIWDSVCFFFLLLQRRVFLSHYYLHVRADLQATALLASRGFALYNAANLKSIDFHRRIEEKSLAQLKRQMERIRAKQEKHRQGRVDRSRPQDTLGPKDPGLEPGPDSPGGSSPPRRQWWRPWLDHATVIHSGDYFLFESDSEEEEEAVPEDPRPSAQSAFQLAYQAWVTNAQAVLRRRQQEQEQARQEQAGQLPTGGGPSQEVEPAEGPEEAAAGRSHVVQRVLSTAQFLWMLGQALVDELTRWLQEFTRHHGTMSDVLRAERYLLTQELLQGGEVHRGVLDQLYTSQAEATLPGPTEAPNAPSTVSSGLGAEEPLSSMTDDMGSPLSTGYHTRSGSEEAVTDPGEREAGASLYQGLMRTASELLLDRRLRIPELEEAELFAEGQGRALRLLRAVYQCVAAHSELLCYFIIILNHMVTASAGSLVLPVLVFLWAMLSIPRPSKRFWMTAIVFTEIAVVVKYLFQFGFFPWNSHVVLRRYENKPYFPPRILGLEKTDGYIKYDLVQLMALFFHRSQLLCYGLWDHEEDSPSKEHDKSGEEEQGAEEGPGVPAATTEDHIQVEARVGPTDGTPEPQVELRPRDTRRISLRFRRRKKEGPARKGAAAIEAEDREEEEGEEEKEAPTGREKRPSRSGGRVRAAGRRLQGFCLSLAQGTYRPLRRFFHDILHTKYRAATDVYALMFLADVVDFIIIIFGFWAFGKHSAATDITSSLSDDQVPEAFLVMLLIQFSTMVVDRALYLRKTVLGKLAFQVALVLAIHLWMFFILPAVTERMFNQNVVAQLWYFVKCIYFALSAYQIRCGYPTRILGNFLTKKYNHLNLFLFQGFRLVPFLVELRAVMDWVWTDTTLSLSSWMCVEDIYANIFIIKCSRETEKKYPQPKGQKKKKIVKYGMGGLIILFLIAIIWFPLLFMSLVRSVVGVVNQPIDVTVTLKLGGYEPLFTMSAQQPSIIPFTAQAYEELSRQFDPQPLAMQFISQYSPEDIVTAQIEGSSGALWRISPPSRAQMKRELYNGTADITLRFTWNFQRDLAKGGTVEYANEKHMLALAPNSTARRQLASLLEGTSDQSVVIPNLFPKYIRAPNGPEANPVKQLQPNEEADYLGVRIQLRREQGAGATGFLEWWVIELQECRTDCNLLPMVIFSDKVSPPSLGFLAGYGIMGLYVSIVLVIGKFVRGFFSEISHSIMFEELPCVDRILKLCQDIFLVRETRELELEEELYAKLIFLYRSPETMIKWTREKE
UniProt Q8NBU5: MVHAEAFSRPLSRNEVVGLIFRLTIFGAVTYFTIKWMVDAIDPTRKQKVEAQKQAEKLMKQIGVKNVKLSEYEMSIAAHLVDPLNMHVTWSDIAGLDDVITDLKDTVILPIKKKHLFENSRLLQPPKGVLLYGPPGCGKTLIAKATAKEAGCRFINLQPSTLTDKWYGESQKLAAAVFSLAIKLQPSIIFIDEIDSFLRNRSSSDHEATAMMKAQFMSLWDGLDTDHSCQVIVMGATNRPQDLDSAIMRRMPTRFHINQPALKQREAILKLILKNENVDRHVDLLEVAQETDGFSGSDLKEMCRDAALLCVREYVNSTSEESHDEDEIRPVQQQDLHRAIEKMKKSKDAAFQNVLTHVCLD
UniProt Q8N5K1: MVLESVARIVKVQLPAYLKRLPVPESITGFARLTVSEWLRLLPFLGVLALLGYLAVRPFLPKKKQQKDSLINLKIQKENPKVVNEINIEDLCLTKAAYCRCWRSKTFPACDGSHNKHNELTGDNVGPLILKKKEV
UniProt Q8TBC4: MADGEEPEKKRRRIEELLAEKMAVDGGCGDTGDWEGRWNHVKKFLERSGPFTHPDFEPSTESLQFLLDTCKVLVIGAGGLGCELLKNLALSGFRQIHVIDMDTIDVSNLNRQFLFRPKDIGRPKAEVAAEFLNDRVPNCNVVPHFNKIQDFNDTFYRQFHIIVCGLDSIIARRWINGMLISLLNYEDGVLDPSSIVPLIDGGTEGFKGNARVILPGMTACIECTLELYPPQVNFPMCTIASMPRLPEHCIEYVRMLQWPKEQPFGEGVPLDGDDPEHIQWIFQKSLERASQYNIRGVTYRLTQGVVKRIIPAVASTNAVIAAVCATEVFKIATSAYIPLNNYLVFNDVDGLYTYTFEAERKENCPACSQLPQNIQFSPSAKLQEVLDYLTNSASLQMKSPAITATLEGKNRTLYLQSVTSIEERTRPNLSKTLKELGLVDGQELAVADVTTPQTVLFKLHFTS
UniProt Q8WXI9: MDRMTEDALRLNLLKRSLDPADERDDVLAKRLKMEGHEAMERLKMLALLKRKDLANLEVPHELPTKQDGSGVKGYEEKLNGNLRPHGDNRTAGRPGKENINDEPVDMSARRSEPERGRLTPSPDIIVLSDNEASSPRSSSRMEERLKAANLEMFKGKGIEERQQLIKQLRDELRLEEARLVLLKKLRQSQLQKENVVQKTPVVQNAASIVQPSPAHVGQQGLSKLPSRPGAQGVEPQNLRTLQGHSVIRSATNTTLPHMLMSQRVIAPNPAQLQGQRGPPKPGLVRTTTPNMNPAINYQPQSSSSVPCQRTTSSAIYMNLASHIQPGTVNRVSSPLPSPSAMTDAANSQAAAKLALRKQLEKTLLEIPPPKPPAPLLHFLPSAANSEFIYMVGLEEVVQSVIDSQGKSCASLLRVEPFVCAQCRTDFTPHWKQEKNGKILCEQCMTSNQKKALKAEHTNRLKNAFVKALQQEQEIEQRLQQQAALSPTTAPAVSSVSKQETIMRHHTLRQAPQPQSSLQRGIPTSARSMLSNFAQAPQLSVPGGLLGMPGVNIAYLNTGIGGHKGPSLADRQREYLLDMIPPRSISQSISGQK
UniProt Q8TDN6: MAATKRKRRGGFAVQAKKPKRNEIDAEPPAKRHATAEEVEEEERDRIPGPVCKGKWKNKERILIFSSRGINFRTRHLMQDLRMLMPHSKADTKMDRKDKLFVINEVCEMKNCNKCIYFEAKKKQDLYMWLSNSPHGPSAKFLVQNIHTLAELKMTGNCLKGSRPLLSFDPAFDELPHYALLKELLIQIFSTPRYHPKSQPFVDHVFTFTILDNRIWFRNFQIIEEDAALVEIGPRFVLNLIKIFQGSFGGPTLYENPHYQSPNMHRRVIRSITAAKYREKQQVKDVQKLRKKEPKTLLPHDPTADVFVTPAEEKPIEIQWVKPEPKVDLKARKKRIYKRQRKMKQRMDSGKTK
UniProt Q8N2W9: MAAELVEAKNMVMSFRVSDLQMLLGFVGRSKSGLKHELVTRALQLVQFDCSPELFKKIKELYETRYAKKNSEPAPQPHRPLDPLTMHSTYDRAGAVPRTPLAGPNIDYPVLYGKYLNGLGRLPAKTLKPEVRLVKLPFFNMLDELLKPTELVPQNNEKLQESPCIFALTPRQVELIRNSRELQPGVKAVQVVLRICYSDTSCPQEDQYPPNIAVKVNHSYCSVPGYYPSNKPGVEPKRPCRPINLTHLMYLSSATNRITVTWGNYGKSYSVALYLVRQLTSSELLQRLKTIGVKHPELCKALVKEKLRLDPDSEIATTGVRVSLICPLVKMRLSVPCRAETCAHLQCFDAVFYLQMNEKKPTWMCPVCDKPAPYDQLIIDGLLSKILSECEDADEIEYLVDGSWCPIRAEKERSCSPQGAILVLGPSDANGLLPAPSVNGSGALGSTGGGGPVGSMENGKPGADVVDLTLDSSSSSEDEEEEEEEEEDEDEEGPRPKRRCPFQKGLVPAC
UniProt Q8NFF5: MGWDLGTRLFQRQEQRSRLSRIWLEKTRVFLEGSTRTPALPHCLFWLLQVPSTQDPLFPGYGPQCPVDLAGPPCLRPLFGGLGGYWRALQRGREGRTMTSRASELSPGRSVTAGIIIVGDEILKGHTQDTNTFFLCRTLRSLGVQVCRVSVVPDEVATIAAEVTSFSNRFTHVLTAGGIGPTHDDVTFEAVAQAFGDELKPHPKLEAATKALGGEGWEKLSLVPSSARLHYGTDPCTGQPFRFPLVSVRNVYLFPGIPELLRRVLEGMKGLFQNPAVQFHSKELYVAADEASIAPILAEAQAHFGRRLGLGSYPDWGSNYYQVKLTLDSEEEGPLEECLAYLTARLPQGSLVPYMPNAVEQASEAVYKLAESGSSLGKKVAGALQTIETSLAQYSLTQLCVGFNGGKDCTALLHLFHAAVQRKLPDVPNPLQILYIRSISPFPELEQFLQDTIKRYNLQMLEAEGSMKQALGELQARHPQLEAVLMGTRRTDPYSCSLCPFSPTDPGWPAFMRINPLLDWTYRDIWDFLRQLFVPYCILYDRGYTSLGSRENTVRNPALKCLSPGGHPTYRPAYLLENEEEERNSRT
UniProt Q8ND56: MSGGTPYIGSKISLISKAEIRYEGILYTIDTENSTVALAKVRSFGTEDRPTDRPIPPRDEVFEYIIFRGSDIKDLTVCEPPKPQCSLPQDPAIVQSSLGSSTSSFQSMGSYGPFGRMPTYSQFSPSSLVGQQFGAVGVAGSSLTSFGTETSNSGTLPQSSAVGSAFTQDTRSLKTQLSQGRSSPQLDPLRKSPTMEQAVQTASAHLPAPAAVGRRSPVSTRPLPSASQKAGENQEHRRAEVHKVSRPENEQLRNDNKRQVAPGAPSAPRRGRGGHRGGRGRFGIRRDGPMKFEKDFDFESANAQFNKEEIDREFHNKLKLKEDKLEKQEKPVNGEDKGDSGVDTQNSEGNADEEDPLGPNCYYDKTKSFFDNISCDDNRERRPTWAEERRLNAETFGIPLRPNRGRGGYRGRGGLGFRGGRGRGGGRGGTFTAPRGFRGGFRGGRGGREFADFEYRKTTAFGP
UniProt Q8TAT6: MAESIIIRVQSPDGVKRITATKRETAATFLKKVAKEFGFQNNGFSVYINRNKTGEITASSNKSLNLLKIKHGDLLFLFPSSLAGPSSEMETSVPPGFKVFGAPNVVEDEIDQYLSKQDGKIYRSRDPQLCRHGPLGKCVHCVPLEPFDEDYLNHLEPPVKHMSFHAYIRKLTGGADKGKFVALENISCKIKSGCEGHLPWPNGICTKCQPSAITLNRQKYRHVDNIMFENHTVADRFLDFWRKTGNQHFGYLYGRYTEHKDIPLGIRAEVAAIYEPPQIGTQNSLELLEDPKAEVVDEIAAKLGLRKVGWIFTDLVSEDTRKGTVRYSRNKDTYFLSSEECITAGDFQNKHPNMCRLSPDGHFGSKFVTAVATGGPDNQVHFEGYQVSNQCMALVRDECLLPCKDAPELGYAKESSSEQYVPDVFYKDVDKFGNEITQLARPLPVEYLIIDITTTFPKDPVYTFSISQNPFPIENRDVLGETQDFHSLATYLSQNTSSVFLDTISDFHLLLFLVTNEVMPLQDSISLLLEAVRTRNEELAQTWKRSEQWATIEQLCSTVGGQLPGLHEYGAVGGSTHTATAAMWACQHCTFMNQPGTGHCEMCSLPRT

What follows are targets tested with COC(=O)C#Cc1ccccc1 [methyl 3-phenylpropiolate] (assay: log2 ratio of iodoacetamide-alkyne labeling of the cysteine site, DMSO over compound (competition); higher = stronger covalent engagement of the cysteine by the compound, active = 1 or more). Settings: 500 µM; treatment time 1 h; system: HEK293T cell lysate.
Method in brief: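 HEK293T lysate at 2 mg/mL was treated with vehicle or electrophile (500 µM) for 1 h at ambient temperature, then labelled with iodoacetamide alkyne (1 h), clicked to sCIP-TMT reagents, pooled, digested with trypsin overnight at 37 °C, enriched on streptavidin and eluted with acid. Peptides were analysed by Orbitrap Eclipse LC-MS/MS with FAIMS and quantified in FragPipe, using duplicate channels and three replicates, with cysteines quantified in only one replicate excluded. The log2 competition ratio for each cysteine is the mean control-channel reporter intensity divided by the mean compound-channel reporter intensity.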
TRUB1 C269 (UniProt Q8WWH5) was tested, and the “log2 ratio of iodoacetamide-alkyne labeling” value (from here on “log2 ratio”) was inactive: 0.163.
With UniProt Q8N1I0_C1723 the “log2 ratio” value was active: 1.34.
With PPP4R1 C78 (UniProt Q8TF05) the “log2 ratio” value was inactive: -0.0473.
In the case of UniProt Q8TEJ3_C428, the “log2 ratio” value was inactive: 0.351.
In the case of PIEZO1 C383 (UniProt Q92508), the “log2 ratio” value was inactive: 0.166.
With UniProt Q8NBU5_C310 the “log2 ratio” value was inactive: 0.405.
With ZNF687 C339 (UniProt Q8N1G0) the “log2 ratio” value was inactive: 0.853.
For CTNNBL1 C370 (UniProt Q8WYA6), the “log2 ratio” value was inactive: -0.0869.
UBR7 C424 (UniProt Q8N806) was tested, and the “log2 ratio” value was inactive: 0.287.
With CISD2 C92 (UniProt Q8N5K1) the “log2 ratio” value was inactive: 0.0262.
For SMCR8 C644 (UniProt Q8TEV9), the “log2 ratio” value was inactive: 0.488.
For UBA3 C28 (UniProt Q8TBC4), the “log2 ratio” value was inactive: 0.199.
With UniProt Q8WZA9_C443 the “log2 ratio” value was inactive: 0.36.
NANP C242 (UniProt Q8TBE9) was tested, and the “log2 ratio” value was inactive: 0.241.
For GATAD2B C423 (UniProt Q8WXI9), the “log2 ratio” value was inactive: 0.12.
Q8V1_C158 was tested, and the “log2 ratio” value was inactive: 0.576.
For KLHDC4 C430 (UniProt Q8TBB5), the “log2 ratio” value was inactive: 0.264.
For UniProt Q8TE02_C203, the “log2 ratio” value was inactive: -0.0789.
SMAP2 C196 (UniProt Q8WU79) was tested, and the “log2 ratio” value was inactive: 0.318.
In the case of UniProt Q8TDN6_C52, the “log2 ratio” value was inactive: 0.652.
In the case of PIAS4 C164 (UniProt Q8N2W9), the “log2 ratio” value was inactive: 0.358.
LRRC47 C164 (UniProt Q8N1G4) was tested, and the “log2 ratio” value was inactive: -0.114.
UniProt Q8N1I0_C1857 was tested, and the “log2 ratio” value was inactive: 0.45.
In the case of FLAD1 C236 (UniProt Q8NFF5), the “log2 ratio” value was inactive: 0.312.
In the case of UniProt Q8WZA9_C504, the “log2 ratio” value was inactive: 0.0403.
For THOC2 C773 (UniProt Q8NI27), the “log2 ratio” value was inactive: 0.0974.
For LSM14A C85 (UniProt Q8ND56), the “log2 ratio” value was inactive: 0.608.
For UniProt Q8NBU5_C303, the “log2 ratio” value was inactive: 0.133.
In the case of XRN1 C132 (UniProt Q8IZH2), the “log2 ratio” value was inactive: 0.261.
In the case of NPLOC4 C188 (UniProt Q8TAT6), the “log2 ratio” value was inactive: 0.0504.
For NUDT8 C224 (UniProt Q8WV74), the “log2 ratio” value was inactive: 0.747.
ARL6IP6 C48 (UniProt Q8N6S5) was tested, and the “log2 ratio” value was inactive: 0.392.
For DNAJB14 C77 (UniProt Q8TBM8), the “log2 ratio” value was active: 1.08.
With C1orf131 C100 (UniProt Q8NDD1) the “log2 ratio” value was inactive: 0.391.
With UniProt Q8NB37_C154 the “log2 ratio” value was inactive: 0.389.
In the case of RNF214 C655 (UniProt Q8ND24), the “log2 ratio” value was inactive: 0.558.
For SRBD1 C165 (UniProt Q8N5C6), the “log2 ratio” value was inactive: -0.167.
